From the supplement of paper PMC12067093, “Discovery and optimisation of a covalent ligand for TRIM25 and its application to targeted protein ubiquitination” (Chemical Science, 2025)
The list shows a part of the results.

By UniProt entry, the sequences of proteins in these tests, tags left out. Where a name states a change or a piece, a line headed by the entry shows the natural chain unless it says otherwise.
UniProt Q08211, whole entry, looked up: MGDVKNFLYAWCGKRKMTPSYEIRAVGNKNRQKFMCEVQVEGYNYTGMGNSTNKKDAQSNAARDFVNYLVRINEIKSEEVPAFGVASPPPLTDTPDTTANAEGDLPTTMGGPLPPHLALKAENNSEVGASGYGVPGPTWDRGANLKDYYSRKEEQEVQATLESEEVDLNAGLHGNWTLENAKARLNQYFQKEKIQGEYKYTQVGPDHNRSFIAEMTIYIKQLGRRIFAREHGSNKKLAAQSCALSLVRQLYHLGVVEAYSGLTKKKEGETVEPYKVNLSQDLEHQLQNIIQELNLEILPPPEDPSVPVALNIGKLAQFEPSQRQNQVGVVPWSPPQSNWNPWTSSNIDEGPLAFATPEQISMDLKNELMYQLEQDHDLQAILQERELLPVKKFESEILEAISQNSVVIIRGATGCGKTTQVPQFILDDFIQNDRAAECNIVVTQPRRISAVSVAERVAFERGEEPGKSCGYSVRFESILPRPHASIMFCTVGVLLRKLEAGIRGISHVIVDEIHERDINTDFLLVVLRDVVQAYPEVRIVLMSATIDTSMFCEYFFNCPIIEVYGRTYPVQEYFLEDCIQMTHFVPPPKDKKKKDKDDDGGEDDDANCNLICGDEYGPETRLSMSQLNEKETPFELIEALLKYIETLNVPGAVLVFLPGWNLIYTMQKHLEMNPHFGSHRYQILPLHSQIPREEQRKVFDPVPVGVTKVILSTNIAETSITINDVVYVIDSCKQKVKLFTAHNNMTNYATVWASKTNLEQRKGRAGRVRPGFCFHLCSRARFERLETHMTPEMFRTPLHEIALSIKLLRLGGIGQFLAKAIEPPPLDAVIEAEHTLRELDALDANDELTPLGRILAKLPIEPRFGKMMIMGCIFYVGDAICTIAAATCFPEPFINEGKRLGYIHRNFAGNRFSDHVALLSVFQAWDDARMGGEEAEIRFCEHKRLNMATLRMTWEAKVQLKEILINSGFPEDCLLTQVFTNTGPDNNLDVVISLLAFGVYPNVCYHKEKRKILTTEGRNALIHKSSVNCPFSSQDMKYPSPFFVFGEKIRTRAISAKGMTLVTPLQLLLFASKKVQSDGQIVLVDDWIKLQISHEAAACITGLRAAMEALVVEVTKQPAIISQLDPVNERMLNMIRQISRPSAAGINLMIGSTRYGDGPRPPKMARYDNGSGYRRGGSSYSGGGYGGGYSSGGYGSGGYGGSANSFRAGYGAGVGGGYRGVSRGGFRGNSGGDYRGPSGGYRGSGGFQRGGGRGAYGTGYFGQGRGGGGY
UniProt Q7Z3D6: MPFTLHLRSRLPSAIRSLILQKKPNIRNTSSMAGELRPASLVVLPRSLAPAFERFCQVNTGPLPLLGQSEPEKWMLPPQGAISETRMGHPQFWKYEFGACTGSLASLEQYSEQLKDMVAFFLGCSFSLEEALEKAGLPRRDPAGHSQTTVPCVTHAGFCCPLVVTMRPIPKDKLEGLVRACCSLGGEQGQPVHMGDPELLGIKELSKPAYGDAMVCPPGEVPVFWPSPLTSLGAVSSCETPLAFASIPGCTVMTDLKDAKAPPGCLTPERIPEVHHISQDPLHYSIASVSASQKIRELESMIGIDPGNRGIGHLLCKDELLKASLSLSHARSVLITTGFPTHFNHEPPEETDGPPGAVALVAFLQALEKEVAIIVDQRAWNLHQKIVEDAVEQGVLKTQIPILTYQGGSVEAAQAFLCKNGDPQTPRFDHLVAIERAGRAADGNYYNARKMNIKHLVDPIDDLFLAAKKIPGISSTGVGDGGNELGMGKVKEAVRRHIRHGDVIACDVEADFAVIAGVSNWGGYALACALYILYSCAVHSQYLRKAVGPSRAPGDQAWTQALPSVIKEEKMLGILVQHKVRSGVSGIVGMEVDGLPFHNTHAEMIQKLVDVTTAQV
UniProt O60610, whole entry, looked up: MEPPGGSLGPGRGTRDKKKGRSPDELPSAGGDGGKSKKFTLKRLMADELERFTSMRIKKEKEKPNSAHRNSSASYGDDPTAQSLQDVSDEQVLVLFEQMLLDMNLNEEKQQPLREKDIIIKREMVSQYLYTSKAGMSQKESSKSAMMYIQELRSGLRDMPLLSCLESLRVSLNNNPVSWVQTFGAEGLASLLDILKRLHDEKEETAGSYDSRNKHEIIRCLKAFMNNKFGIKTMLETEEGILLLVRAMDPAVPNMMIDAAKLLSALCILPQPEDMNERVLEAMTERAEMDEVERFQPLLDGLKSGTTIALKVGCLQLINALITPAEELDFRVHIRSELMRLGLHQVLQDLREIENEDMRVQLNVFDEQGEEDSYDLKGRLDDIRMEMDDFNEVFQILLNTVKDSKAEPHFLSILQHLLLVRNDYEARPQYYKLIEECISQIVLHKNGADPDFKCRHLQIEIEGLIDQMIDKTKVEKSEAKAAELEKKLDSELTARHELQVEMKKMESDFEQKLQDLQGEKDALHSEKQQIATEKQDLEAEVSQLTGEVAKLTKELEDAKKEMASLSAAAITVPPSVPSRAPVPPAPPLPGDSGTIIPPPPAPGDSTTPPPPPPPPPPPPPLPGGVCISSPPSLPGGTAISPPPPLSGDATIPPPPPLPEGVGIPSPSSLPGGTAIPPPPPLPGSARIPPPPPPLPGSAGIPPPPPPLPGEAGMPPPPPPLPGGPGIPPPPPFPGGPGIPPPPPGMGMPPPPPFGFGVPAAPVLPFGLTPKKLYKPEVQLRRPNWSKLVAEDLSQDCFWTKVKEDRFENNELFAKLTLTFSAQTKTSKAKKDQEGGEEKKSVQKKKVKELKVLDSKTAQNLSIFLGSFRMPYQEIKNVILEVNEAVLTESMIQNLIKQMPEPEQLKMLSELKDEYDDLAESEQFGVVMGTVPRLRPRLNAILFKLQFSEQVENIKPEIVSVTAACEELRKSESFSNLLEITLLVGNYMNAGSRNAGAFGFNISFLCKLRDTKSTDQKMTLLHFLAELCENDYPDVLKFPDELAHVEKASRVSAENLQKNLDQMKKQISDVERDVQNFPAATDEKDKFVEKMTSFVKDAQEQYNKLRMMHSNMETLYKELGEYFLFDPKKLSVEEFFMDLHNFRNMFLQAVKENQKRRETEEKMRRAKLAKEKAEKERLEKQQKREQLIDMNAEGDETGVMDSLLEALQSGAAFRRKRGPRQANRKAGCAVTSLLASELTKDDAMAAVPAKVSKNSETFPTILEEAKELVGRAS
UniProt P09622, whole entry, looked up: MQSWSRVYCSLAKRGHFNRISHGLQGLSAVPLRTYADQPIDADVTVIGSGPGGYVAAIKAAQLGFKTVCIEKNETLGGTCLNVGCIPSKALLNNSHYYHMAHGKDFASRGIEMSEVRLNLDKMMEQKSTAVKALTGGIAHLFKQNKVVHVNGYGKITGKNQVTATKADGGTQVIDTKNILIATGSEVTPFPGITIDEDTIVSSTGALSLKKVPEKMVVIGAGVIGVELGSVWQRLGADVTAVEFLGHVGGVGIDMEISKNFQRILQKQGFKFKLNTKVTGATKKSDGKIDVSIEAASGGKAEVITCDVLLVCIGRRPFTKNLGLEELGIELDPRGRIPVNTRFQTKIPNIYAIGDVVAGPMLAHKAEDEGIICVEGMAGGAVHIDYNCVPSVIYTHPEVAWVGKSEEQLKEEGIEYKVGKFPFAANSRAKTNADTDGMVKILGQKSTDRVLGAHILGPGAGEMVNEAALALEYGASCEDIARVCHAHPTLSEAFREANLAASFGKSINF
UniProt Q8IY37: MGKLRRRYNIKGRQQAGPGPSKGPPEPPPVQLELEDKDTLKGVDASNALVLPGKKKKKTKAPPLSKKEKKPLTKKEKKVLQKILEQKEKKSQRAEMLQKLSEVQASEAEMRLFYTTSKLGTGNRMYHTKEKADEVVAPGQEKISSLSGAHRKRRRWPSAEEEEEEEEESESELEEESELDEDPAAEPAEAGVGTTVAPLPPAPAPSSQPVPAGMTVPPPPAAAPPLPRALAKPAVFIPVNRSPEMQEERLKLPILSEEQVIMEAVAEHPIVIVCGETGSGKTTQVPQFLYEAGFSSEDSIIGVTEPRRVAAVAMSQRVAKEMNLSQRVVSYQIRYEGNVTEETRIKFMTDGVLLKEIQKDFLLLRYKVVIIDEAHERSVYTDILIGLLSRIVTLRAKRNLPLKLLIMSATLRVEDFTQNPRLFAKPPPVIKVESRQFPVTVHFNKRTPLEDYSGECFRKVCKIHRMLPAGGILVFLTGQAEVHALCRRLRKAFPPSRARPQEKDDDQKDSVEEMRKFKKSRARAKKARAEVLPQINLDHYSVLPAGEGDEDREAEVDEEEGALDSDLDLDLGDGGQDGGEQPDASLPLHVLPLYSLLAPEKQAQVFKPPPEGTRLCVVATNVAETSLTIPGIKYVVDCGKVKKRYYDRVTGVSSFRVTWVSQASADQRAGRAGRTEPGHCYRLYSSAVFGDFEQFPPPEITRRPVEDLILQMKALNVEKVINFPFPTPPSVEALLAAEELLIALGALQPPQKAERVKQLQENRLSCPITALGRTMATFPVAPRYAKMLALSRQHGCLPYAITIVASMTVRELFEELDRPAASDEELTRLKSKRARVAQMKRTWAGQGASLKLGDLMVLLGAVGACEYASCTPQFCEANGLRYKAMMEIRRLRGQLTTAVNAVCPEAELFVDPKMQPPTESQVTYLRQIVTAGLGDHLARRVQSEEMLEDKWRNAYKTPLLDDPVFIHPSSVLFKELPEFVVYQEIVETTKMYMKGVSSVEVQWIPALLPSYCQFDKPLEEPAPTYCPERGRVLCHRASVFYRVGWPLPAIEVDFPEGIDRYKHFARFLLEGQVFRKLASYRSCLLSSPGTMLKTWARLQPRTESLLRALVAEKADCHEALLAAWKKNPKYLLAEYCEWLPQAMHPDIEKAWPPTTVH
UniProt Q96GE9: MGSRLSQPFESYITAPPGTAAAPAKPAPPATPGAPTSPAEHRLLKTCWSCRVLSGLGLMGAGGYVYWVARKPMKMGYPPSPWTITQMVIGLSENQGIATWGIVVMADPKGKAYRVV
UniProt Q9Y2L1: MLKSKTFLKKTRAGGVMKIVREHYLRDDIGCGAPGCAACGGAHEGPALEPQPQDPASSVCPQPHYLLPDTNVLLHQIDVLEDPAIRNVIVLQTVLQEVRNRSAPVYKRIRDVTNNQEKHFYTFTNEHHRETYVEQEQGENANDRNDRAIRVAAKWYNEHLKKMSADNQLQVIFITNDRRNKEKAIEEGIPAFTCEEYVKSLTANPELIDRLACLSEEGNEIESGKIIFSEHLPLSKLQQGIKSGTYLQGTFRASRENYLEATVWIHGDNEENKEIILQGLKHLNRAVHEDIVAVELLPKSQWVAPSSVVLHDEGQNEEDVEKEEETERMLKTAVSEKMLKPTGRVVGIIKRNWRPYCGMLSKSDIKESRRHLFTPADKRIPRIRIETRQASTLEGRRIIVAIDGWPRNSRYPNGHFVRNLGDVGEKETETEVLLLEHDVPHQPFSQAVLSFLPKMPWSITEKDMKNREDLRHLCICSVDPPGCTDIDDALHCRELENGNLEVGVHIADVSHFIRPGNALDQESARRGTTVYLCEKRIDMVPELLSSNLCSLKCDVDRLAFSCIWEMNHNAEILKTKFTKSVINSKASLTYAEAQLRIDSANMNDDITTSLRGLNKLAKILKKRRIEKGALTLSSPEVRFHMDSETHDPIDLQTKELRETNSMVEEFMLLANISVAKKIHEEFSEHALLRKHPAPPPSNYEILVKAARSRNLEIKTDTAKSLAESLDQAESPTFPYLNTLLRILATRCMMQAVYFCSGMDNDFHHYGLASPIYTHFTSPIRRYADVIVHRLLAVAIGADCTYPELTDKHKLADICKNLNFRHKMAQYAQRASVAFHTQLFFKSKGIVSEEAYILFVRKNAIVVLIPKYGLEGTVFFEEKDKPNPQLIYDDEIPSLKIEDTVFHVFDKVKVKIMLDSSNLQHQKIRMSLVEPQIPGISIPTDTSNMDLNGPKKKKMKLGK
UniProt Q99615: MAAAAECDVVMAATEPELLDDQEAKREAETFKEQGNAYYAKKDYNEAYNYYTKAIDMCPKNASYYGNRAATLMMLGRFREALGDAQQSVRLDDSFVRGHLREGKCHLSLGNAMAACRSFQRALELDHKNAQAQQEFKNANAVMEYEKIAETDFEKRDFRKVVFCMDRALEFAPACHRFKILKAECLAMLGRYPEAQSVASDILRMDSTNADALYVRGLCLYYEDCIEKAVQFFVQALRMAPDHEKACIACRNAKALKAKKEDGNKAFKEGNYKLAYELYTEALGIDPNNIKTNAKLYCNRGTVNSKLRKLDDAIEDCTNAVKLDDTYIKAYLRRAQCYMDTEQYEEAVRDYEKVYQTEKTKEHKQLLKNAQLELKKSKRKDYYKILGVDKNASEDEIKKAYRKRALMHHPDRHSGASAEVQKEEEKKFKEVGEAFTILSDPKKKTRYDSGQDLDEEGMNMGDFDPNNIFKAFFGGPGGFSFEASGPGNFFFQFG

Compound: CC1Cc2ccccc2N1C(=O)C1CCCN(C1)C(=O)CCl (mixture of isomers) [TRIM25 ligand 11 (diastereomer mixture)]
Test: probe-labelled cysteine peptide fold change vs DMSO (competition) (log2 fold change); higher = less target engagement (more negative = stronger competition)
Conditions: THP-1, incubation time: 4 h
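Note: competitive chemoproteomic profiling in live THP-1 cells with an iodoacetamide desthiobiotin (IA-DTB) probe, comparing probe-labelled peptide intensities in compound-treated cells against DMSO-treated controls.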

Row | Target | probe-labelled cysteine peptide fold change (10 µM) | probe-labelled cysteine peptide fold change (50 µM)
1 | DHX30_Q7L2E3_346_RPCTIQVPEPILR (UniProt Q7L2E3) | -0.167 | -0.454
2 | DHX9_Q08211_242_LAAQSCALSLVR (UniProt Q08211) | 0.0548 | 0.166
3 | DIDO1_Q9BTC0_455_CGAQAGIK (UniProt Q9BTC0) | -0.117 | -0.185
4 | DGLUCY_Q7Z3D6_100_YEFGACTGSLASLEQYSEQLK (UniProt Q7Z3D6) | -0.0187 | 0.115
5 | DHX15_O43143_307_FQIYFDNCPLLTIPGR (UniProt O43143) | 0.253 | 0.215
6 | DIAPH2_O60879_884_TTLLHFIADICEEK (UniProt O60879) | -0.0101 | 0.0779
7 | DIAPH1_O60610_1005_NAGAFGFNISFLCK (UniProt O60610) | -0.119 | -0.0371
8 | DNASE1L1_P49184_224_ASTHCTYDR (UniProt P49184) | 0.107 | -0.0989
9 | DIAPH1_O60610_267_LLSALCILPQPEDMNER (UniProt O60610) | -0.121 | -0.0922
10 | DLAT_P10515_291_DVPLGTPLCIIVEK (UniProt P10515) | 0.0496 | 0.0162
11 | DLD_P09622_484_VCHAHPTLSEAFR (UniProt P09622) | 0.111 | -0.123
12 | DHX37_Q8IY37_1116_ADCHEALLAAWK (UniProt Q8IY37) | -0.0518 | -0.0211
13 | DHX37_Q8IY37_486_MLPAGGILVFLTGQAEVHALCR (UniProt Q8IY37) | 0.281 | 0.563
14 | DKC1_O60832_220_LGIFWVSCEAGTYIR (UniProt O60832) | 0.18 | 0.371
15 | DHX40_Q8IX18_153_YMTDGCLLK (UniProt Q8IX18) | 0.0746 | 0.0436
16 | DMAC1_Q96GE9_50_TCWSCR (UniProt Q96GE9) | -0.0609 | 0.289
17 | DHX9_Q08211_773+777_VRPGFCFHLCSR (UniProt Q08211) | -0.114 | -0.0619
18 | DIS3_Q9Y2L1_492_HLCICSVDPPGCTDIDDALHCR (UniProt Q9Y2L1) | 0.202 | 0.173

Row | Target | probe-labelled cysteine peptide fold change (10 µM) | probe-labelled cysteine peptide fold change (50 µM)
19 | DNAJC7_Q99615_337_RAQCYMDTEQYEEAVR (UniProt Q99615) | -0.0544 | -0.0392
20 | DHX9_Q08211_415_GATGCGK (UniProt Q08211) | -0.0943 | -0.0219
21 | DNM1L_O00429_446_IIQHCSNYSTQELLR (UniProt O00429) | 0.118 | -0.281
22 | DIAPH1_O60610_437_LIEECISQIVLHK (UniProt O60610) | 0.122 | 0.115
23 | DLEC1_Q9Y238_256_LEDSCR (UniProt Q9Y238) | 0.892 | 0.979
24 | DHRS7_Q9Y394_147_SLCMDTSLDVYRK (UniProt Q9Y394) | 0.00619 | -0.133
25 | DLD_P09622_306_AEVITCDVLLVCIGR (UniProt P09622) | 0.0832 | -0.0372
26 | DIAPH3_Q9NSV4_1125_SHYNINCNSTR (UniProt Q9NSV4) | -0.152 | -0.115
27 | DIS3_Q9Y2L1_549_IDMVPELLSSNLCSLK (UniProt Q9Y2L1) | 0.161 | 0.289
28 | DHX36_Q9H2U1_135_NTPCSENK (UniProt Q9H2U1) | 0.00484 | -0.186
29 | DNAJC16_Q9Y2G8_744_GKPSCGLGSRPIK (UniProt Q9Y2G8) | -0.287 | -0.281
30 | DNAJA1_P31689_150+153_GAVECCPNCR (UniProt P31689) | 0.0372 | 0.0338
31 | DLGAP4_Q9Y2H0_736_SLPDCTPHPNSISIDAGPR (UniProt Q9Y2H0) | -0.125 | -0.39
32 | DGLUCY_Q7Z3D6_418_TQIPILTYQGGSVEAAQAFLCK (UniProt Q7Z3D6) | -0.0339 | 0.0164
33 | DNAJC2_Q99543_26_GTAITHALTSASTLCQVEPVGR (UniProt Q99543) | -0.126 | -0.0558
34 | DNAJC11_Q9NVH1_38_LCMLYHPDK (UniProt Q9NVH1) | -0.095 | -0.0827
35 | DIAPH1_O60610_964_LQFSEQVENIKPEIVSVTAACEELRK (UniProt O60610) | 0.114 | 0.136
36 | DNAJC21_Q5F1R6_487_VPAEPQTMSVLISCTTCHSEFPSR (UniProt Q5F1R6) | -0.0893 | -0.339
